Test results from US4180500A, “Polypeptides related to somatostatin” (American Home Products Corporation, priority 1977, dated 1979).
Part of at least one peptide drawing is inferred or uncertain, most often the ends. Positions of bridges follow the written chain, without caps; N, C: chain ends. Non-standard residues stand in square brackets, D forms with d. Residues, ends and D or L forms follow the SMILES beside them. Mpa = O=C(O)CCS

Legend:
Assay type in all cases: in vivo
[1] = tested on: growth hormone (GH); assay: Arginine-stimulated growth hormone secretion in Nembutal-treated rats, radioimmunoassay; conditions: albino male rats, 200 ug/kg subcutaneous, blood 15 min after compound (5 min after arginine); control 180-350
[2] = tested on: insulin; assay: Arginine-stimulated insulin secretion in Nembutal-treated rats, radioimmunoassay; conditions: albino male rats, 200 ug/kg subcutaneous, blood 15 min after compound (5 min after arginine); control 321-372
[3] = tested on: glucagon; assay: Arginine-stimulated glucagon secretion in Nembutal-treated rats, radioimmunoassay; conditions: albino male rats, 200 ug/kg subcutaneous, blood 15 min after compound (5 min after arginine); control 39-79
[4] = tested on: growth hormone secretion; assay: Duration of effect on growth hormone secretion in rats treated with Nembutal; conditions: 1000 ug/kg; for Growth Hormone: rats, plasma by cardiac puncture; for long-acting inhibition of growth-hormone release (in words): 2 and 4 hrs

SMILES	GH [1] [ng/kg]	Insulin [2] [μU/ml]	Glucagon [3] [pg/mL]	Growth Hormone ([4]; time 2 hrs) [ng/mL]	Growth Hormone ([4]; time 4 hrs) [ng/mL]	long-acting inhibition of growth-hormone release (in words) [4]
C[C@@H](O)[C@@H]1NC(=O)[C@H](Cc2ccccc2)NC(=O)[C@H]([C@@H](C)O)NC(=O)[C@H](CCCCN)NC(=O)[C@@H](Cc2c[nH]c3ccccc23)NC(=O)[C@H](Cc2ccccc2)NC(=O)[C@H](Cc2ccccc2)NC(=O)[C@H](Cc2c[nH]cn2)NC(=O)[C@H](Cc2c[nH]cn2)NC(=O)CCSSC[C@@H](C(=O)O)NC(=O)[C@H](CO)NC1=O [Example 4, β-Mercaptopropionyl-L-histidyl-L-histidyl-L-phenylalanyl-L-phenylalanyl-D-tryptophyl-L-lysyl-L-threonyl-L-phenylalanyl-L-threonyl-L-seryl-L-cysteine cyclic (1-11) disulfide] ([Mpa]HHFF[dW]KTFTSC-OH; disulfide 1-12)	140 ± 22	394 ± 82	23 ± 6	202 ± 19	247 ± 51	
C[C@@H](O)[C@@H]1NC(=O)[C@H](Cc2ccccc2)NC(=O)[C@H]([C@@H](C)O)NC(=O)[C@H](CCCCN)NC(=O)[C@@H](Cc2c[nH]c3ccccc23)NC(=O)[C@H](Cc2ccccc2)NC(=O)[C@H](Cc2ccccc2)NC(=O)[C@H](Cc2c[nH]cn2)NC(=O)[C@H](CCCNC(=N)N)NC(=O)CCSSC[C@@H](C(=O)O)NC(=O)[C@H](CO)NC1=O [Example 2, β-Mercaptopropionyl-L-arginyl-L-histidyl-L-phenylalanyl-L-phenylalanyl-D-tryptophyl-L-lysyl-L-threonyl-L-phenylalanyl-L-threonyl-L-seryl-L-cysteine cyclic (1-11)disulfide] ([Mpa]RHFF[dW]KTFTSC-OH; disulfide 1-12)	33 ± 8	253 ± 53	0 ± 0	120 ± 19	183 ± 33	show long-acting inhibition of growth-hormone release
C[C@@H](O)[C@@H]1NC(=O)[C@H](Cc2ccccc2)NC(=O)[C@H]([C@@H](C)O)NC(=O)[C@H](CCCCN)NC(=O)[C@@H](Cc2c[nH]c3ccccc23)NC(=O)[C@H](Cc2ccccc2)NC(=O)[C@H](Cc2ccccc2)NC(=O)[C@H](CCC(=O)O)NC(=O)[C@H](CCCNC(=N)N)NC(=O)CCSSC[C@@H](C(=O)O)NC(=O)[C@H](CO)NC1=O [Example 3, β-Mercaptopropionyl-L-arginyl-L-glutamyl-L-phenylalanyl-L-phenylalanyl-D-tryptophyl-L-lysyl-L-threonyl-L-phenylalanyl-L-threonyl-L-seryl-L-cysteine cyclic (1-11) disulfide] ([Mpa]REFF[dW]KTFTSC-OH; disulfide 1-12)	70 ± 5	236 ± 32	29 ± 7	106 ± 16	87 ± 22	show long-acting inhibition of growth-hormone release
